# Values of other authors as cited in patent publication US20250170152A1, “Cannabinoid Dosage Form” (priority 2022, published 2025).
# Some of these results come from one statement about several compounds together.
# Details: estimated
compound,measurement,value
"CCCCCc1cc(O)c2c(c1)OC(C)(C)[C@@H]1CCC(C)=C[C@@H]21 [THC, delta-9-tetrahydrocannabinol]",oral bioavailability,≥ 6%
